Assay results

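A counter-screen in EP4-overexpressing cells measuring cyclic AMP with a time-resolved FRET kit under weak PGE2 stimulation.
Compounds were tested at 20 µM final. A low (about EC15) PGE2 dose was present.
Percent cAMP induction as a fraction of the 1 µM PGE2 response, averaged over three replicates; a higher value means more cAMP.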

Values are in %.
Common to all entries: measured here: EP4 receptor counter-screen.
Part of the compounds only, not a random draw; the main read-out is not listed here.

Compound,condition,cAMP induction (%)
CCOc1ccc(OCC)c(NC(=O)CN2CCN(c3cc(C)ccc3C)CC2)c1,percent of 1 uM PGE2 response; plus low (about EC15) PGE2 agonist,2.653
C[N+]1(C)CCOC(O)(c2ccc(-c3ccc(C4(O)C[N+](C)(C)CCO4)cc3)cc2)C1 (centres undefined),percent of 1 uM PGE2 response; plus low (about EC15) PGE2 agonist,10.28
Cc1nnc(SCC(=O)NC2CCCCC2)n1C1CCCCC1,percent of 1 uM PGE2 response; plus low (about EC15) PGE2 agonist,12.15
C=CCOc1ccccc1CNc1cccc(F)c1,percent of 1 uM PGE2 response; plus low (about EC15) PGE2 agonist,1.81
CCOC(=O)C1=C(N)OC(C)=C(C#N)C1c1ccco1 (centres undefined),percent of 1 uM PGE2 response; plus low (about EC15) PGE2 agonist,1.273
CCOC(=O)c1c(/N=C/C2C(=O)CCCC2=O)sc2c1CCCC2,percent of 1 uM PGE2 response; plus low (about EC15) PGE2 agonist,-10.03
CCOC(=O)CCN(Cc1sccc1C)S(=O)(=O)c1ccc(F)cc1,percent of 1 uM PGE2 response; plus low (about EC15) PGE2 agonist,-9.813
CCOC(=O)C1CCN(c2c(C(=O)c3ccccc3)cnc3ccc(Cl)cc23)CC1,percent of 1 uM PGE2 response; plus low (about EC15) PGE2 agonist,-1.28
Cc1ccc(C)c(NC(=S)N(Cc2ccco2)C(C)c2cccs2)c1 (centres undefined),percent of 1 uM PGE2 response; plus low (about EC15) PGE2 agonist,-19.91
CC1=C[N+](=O)c2ccccc2[N+]1=O,percent of 1 uM PGE2 response; plus low (about EC15) PGE2 agonist,-0.6067
CCOC(=O)c1c(NC(=O)c2ccc(-n3cnnn3)cc2)sc2c1CCCC2,percent of 1 uM PGE2 response; plus low (about EC15) PGE2 agonist,14.62
CCCc1nc(SC2CCCC2)c2c(=O)n(C)c(=O)n(C)c2n1,percent of 1 uM PGE2 response; plus low (about EC15) PGE2 agonist,-20.59
O=c1c2ccccc2nc(/C=C/c2ccccc2)n1CCc1ccccc1,percent of 1 uM PGE2 response; plus low (about EC15) PGE2 agonist,7.783
Cc1cccc(Oc2nc(-c3ccccc3)cc(C)c2S(C)(=O)=O)c1C,percent of 1 uM PGE2 response; plus low (about EC15) PGE2 agonist,4.07
CCCCC(CC)CN1CN(CC(CC)CCCC)CC(C)(N)C1 (centres undefined),percent of 1 uM PGE2 response; plus low (about EC15) PGE2 agonist,-4.907
C=CCc1cccc(/C=N/c2nc3ccccc3n2CC)c1O,percent of 1 uM PGE2 response; plus low (about EC15) PGE2 agonist,-15.99
CO/N=C/C(=N\Nc1ccccc1)C(=O)c1ccccc1,percent of 1 uM PGE2 response; plus low (about EC15) PGE2 agonist,11.22
CCOC(=O)C1CCCN(C(=O)c2ccc(C)cc2O)C1 (centres undefined),percent of 1 uM PGE2 response; plus low (about EC15) PGE2 agonist,-2.443
Clc1ccc(Cl)c(-c2ccc(/C=N/c3ncn[nH]3)o2)c1,percent of 1 uM PGE2 response; plus low (about EC15) PGE2 agonist,3.31
CCCSc1ncnc2c1oc1ccccc12,percent of 1 uM PGE2 response; plus low (about EC15) PGE2 agonist,-20.73
CCCCOc1ccccc1C1C(C(=O)OC)=C(C)N(C)C(C)=C1C(=O)OC,percent of 1 uM PGE2 response; plus low (about EC15) PGE2 agonist,-15.44
S=c1[nH]nc(Cc2ccccc2)n1Cc1ccco1,percent of 1 uM PGE2 response; plus low (about EC15) PGE2 agonist,4.927
O=S(=O)(O)c1ccc2c(N=Nc3c(O)ccc4ccccc34)cccc2c1,percent of 1 uM PGE2 response; plus low (about EC15) PGE2 agonist,-1.847
CCCn1c(-c2cccs2)nc2c1c(=O)[nH]c(=O)n2Cc1ccccc1,percent of 1 uM PGE2 response; plus low (about EC15) PGE2 agonist,-6.043
CCn1c2ccc(F)cc2c2nc3ccccc3nc21,percent of 1 uM PGE2 response; plus low (about EC15) PGE2 agonist,2.643
Cc1cccc(OCc2n[nH]c(=S)n2Cc2ccccc2)c1,percent of 1 uM PGE2 response; plus low (about EC15) PGE2 agonist,-15.65
COc1ccc(-n2c(=S)[nH]c3c(oc4ccccc43)c2=O)cc1,percent of 1 uM PGE2 response; plus low (about EC15) PGE2 agonist,60.27
O=C(O)CCSc1ccc2ccccc2n1,percent of 1 uM PGE2 response; plus low (about EC15) PGE2 agonist,74.07
OCCCNc1nc(-c2ccc(Cl)cc2)nnc1-c1ccc(Br)cc1,percent of 1 uM PGE2 response; plus low (about EC15) PGE2 agonist,1.74

For reference, 3 entries once more:

| Compound | condition | cAMP induction (%) |
|---|---|---|
| `CCCc1nc(SC2CCCC2)c2c(=O)n(C)c(=O)n(C)c2n1` | percent of 1 uM PGE2 response; plus low (about EC15) PGE2 agonist | -20.59 |
| `CCOC(=O)C1CCN(c2c(C(=O)c3ccccc3)cnc3ccc(Cl)cc23)CC1` | percent of 1 uM PGE2 response; plus low (about EC15) PGE2 agonist | -1.28 |
| `CCOC(=O)C1=C(N)OC(C)=C(C#N)C1c1ccco1` (centres undefined) | percent of 1 uM PGE2 response; plus low (about EC15) PGE2 agonist | 1.273 |

The results are deposited in PubChem (AID1080; Emory University Molecular Libraries Screening Center, 2008).